# Reference: US20230035235A1
# Amino acid sequences for entries named in this document (tags omitted). Residues count along the entry.
# UniProt P51531: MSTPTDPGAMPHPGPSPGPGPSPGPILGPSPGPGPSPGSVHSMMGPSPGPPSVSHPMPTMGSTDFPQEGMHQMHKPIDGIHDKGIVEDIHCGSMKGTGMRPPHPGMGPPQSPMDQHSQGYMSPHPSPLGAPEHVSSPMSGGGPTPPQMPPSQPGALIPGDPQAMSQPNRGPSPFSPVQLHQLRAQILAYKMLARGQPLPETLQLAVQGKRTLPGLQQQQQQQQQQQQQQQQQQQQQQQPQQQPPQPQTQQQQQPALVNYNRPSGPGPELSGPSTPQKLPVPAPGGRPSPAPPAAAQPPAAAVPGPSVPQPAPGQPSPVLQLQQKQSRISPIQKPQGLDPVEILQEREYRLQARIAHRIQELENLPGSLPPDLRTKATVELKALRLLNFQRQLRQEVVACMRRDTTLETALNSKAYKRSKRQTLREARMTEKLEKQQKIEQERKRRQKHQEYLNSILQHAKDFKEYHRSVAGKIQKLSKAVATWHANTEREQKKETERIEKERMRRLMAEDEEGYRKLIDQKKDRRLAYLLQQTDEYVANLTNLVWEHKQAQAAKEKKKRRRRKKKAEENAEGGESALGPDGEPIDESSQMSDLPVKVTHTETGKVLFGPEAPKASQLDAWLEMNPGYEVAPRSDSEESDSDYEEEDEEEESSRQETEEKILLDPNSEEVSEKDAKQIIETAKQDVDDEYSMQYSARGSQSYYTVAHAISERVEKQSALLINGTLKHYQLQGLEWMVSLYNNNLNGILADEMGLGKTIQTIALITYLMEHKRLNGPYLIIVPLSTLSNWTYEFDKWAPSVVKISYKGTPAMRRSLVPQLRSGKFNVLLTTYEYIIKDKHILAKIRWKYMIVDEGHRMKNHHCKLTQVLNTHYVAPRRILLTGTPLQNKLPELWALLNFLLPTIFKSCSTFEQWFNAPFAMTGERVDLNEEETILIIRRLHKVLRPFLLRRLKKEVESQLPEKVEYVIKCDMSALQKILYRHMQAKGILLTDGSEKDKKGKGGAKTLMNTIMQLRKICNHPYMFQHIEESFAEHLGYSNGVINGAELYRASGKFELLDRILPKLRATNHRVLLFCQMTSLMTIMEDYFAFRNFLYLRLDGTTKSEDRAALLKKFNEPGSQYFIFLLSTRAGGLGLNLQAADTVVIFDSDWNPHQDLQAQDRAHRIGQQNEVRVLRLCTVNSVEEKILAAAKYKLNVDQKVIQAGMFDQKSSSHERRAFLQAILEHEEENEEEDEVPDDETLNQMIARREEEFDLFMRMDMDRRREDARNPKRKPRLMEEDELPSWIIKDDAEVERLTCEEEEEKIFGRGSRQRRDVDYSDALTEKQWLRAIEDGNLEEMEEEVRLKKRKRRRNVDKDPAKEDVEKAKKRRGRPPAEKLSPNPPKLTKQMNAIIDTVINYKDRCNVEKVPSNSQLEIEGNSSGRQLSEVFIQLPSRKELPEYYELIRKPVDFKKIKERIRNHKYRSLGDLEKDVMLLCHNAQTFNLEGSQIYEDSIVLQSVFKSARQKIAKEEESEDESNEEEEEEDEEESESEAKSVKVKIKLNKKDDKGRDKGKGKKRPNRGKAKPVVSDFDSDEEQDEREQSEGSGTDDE
# UniProt Q92922, residues 2-1105: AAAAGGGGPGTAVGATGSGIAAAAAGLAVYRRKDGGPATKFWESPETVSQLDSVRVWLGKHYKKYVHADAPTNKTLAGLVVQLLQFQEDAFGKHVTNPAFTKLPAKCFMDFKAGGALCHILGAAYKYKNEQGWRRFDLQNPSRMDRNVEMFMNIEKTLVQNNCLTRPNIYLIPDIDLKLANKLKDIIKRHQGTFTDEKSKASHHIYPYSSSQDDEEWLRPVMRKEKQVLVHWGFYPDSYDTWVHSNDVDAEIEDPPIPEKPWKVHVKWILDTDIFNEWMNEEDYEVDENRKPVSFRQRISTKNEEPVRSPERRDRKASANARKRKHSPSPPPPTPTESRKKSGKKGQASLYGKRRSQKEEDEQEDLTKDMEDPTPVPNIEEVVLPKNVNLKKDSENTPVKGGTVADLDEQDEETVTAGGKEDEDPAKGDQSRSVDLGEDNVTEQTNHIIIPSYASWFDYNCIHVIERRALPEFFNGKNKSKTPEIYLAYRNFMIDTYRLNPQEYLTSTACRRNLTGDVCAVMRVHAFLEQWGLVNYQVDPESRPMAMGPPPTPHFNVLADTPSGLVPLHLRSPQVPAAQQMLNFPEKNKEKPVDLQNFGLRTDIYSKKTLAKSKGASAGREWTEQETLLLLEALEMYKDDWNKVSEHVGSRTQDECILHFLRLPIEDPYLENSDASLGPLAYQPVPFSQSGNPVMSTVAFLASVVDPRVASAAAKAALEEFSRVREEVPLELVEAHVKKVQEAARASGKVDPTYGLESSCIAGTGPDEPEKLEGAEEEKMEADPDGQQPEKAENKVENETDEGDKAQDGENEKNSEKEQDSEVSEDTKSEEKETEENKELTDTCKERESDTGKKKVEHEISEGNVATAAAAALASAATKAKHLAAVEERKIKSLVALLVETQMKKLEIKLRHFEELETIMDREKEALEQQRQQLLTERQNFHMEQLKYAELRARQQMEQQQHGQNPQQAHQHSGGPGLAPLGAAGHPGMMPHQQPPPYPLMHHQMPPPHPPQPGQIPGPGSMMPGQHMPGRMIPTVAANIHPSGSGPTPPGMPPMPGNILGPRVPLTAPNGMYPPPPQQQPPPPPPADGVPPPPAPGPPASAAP
# Results are given in words; binding and its absence hold for the method and conditions named. Some binding calls cover weakened binding; strength is not graded here. For some of these results: Tags and fused reporters may be left off the sequences shown.
# B1: PHF10 (protein, human, UniProt Q8WUB8 2-498, looked up)
# chain: AAAAGPGAALSPRPCDSDPATPGAQSPKDDNEDNSNDGTQPSKRRRMGSGDSSRSCETSSQDLGFSYYPAENLIEYKWPPDETGEYYMLQEQVSEYLGVTSFKRKYPDLERRDLSHKEKLYLRELNVITETQCTLGLTALRSDEVIDLMIKEYPAKHAEYSVILQEKERQRITDHYKEYSQMQQQNTQKVEASKVPEYIKKAAKKAAEFNSNLNRERMEERRAYFDLQTHVIQVPQGKYKVLPTERTKVSSYPVALIPGQFQEYYKRYSPDELRYLPLNTALYEPPLDPELPALDSDGDSDDGEDGRGDEKRKNKGTSDSSSGNVSEGESPPDSQEDSFQGRQKSKDKAATPRKDGPKRSVLSKSVPGYKPKVIPNAICGICLKGKESNKKGKAESLIHCSQCENSGHPSCLDMTMELVSMIKTYPWQCMECKTCIICGQPHHEEEMMFCDMCDRGYHTFCVGLGAIPSGRWICDCCQRAPPTPRKVGRRGKNSKEG
# B2: HA-PHF10 (protein, human, UniProt Q8WUB8 1-498, looked up, not shown: small tags and cut ends)
# chain: MAAAAGPGAALSPRPCDSDPATPGAQSPKDDNEDNSNDGTQPSKRRRMGSGDSSRSCETSSQDLGFSYYPAENLIEYKWPPDETGEYYMLQEQVSEYLGVTSFKRKYPDLERRDLSHKEKLYLRELNVITETQCTLGLTALRSDEVIDLMIKEYPAKHAEYSVILQEKERQRITDHYKEYSQMQQQNTQKVEASKVPEYIKKAAKKAAEFNSNLNRERMEERRAYFDLQTHVIQVPQGKYKVLPTERTKVSSYPVALIPGQFQEYYKRYSPDELRYLPLNTALYEPPLDPELPALDSDGDSDDGEDGRGDEKRKNKGTSDSSSGNVSEGESPPDSQEDSFQGRQKSKDKAATPRKDGPKRSVLSKSVPGYKPKVIPNAICGICLKGKESNKKGKAESLIHCSQCENSGHPSCLDMTMELVSMIKTYPWQCMECKTCIICGQPHHEEEMMFCDMCDRGYHTFCVGLGAIPSGRWICDCCQRAPPTPRKVGRRGKNSKEG
# Legend:
# SMARCA2 (human) [1] = biological target: SMARCA2 (human) (UniProt P51531); test: inter-protein BS3 crosslinks (CX-MS), HA-BRD7-purified PBAF complexes from HEK-293T
# SMARCC1 (human) [2] = biological target: SMARCC1 (human) (UniProt Q92922); test: as above
# SMARCA2 (human) [3] = biological target: SMARCA2 (human) (UniProt P51531); test: inter-protein BS3 crosslinks found by CX-MS in HA-PHF10-purified PBAF complexes (HEK-293T)
# SMARCC1 (human) [4] = biological target: SMARCC1 (human) (UniProt Q92922); test: as above
Binder,binding (SMARCA2 (human) [1]),binding (SMARCC1 (human) [2]),binding (SMARCA2 (human) [3]),binding (SMARCC1 (human) [4])
B1,binds,binds,,
B2,,,binds,binds
